Measured values: PMC8435636
These are yes or no findings as the source states them, for the method shown. Binding seen in cells or lysates may run through a third protein. Some binding calls cover weakened binding; strength is not graded here.

Amino acid sequences for entries named in this document (tags omitted).
UniProt Q9UBN7: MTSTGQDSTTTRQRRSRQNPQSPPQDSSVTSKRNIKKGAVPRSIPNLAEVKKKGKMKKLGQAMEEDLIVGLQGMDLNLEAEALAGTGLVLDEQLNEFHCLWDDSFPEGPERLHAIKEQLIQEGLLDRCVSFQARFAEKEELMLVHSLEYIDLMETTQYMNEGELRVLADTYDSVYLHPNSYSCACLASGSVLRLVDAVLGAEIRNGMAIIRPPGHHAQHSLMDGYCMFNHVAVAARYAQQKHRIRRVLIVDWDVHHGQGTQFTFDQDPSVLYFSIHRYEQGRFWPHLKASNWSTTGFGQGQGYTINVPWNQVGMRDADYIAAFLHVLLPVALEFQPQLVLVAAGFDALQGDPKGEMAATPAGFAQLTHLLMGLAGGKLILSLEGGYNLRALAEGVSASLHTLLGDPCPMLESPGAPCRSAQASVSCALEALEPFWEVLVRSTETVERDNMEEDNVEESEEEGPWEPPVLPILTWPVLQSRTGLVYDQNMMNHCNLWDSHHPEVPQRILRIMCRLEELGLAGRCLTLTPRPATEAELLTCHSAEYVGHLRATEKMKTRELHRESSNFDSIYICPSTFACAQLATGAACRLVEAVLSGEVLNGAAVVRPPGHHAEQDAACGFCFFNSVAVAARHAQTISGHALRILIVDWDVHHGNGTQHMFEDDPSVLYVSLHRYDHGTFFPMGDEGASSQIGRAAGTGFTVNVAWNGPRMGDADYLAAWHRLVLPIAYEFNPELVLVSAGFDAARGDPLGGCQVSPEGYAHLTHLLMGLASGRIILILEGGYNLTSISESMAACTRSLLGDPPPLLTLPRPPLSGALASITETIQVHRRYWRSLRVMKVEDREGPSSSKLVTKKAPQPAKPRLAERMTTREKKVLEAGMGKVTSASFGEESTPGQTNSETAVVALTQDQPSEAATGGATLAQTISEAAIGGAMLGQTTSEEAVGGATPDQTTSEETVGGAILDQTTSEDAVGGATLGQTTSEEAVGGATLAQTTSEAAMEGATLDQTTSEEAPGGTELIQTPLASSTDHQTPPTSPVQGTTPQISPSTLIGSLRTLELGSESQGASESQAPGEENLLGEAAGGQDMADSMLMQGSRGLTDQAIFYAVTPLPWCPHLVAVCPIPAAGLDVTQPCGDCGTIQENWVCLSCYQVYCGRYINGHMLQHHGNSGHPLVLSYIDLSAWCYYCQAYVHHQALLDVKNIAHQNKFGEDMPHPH
UniProt P84022: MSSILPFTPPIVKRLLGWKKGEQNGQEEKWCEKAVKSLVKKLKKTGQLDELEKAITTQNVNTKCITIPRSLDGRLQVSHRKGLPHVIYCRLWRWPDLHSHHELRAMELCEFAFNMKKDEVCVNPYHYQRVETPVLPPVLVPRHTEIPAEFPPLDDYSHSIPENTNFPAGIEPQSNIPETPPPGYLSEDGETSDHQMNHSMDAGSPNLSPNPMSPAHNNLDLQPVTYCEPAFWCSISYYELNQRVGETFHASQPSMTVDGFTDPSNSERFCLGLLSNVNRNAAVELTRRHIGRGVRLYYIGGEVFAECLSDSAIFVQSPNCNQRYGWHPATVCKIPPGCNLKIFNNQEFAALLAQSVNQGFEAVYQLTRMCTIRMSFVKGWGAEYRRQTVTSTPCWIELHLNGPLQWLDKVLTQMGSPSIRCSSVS

Molecular target: histone deacetylase 6 (human (endogenous in HPMCs)) (UniProt Q9UBN7)
Experiment: co-IP; HPMCs starved 24 h, IL-6 (100 ng/ml) 36 h; non-denaturing lysis buffer; HDAC6 or IgG antibody immobilised on AminoLink Plus resin (Pierce co-IP kit), incubated with lysate overnight; immunoblot for Smad3, HDAC6 and GAPDH

Smad3 (from UniProt P84022 1-425)
binding: binds
